Data published in PMC10726293.
Results are given in words; binding and its absence hold for the method and conditions named. In cells and extracts the contact can be indirect. Some results given as binding are weak or reduced against the parent protein; the word gives no strength.

Target: heterogeneous nuclear ribonucleoprotein K (hnRNPK) (human) (UniProt P61978)
Assay: co-IP; IP with antibodies against hnRNPK or IgG, IP lysis buffer with protease and phosphatase inhibitors, protein A/G magnetic beads; Western blot for β-catenin and hnRNPK; cells with overexpressed or knocked-down lncRNA LYPLAL1-DT and controls

binding: binds
Substance: β-catenin (from UniProt P35222 1-781)
